The other results are listed elsewhere or left out. Most of these values are background signal.
Experiments:
Assay in all cases: fluorescence intensity of antibody binding to polysaccharide-coupled beads; higher = stronger binding
[1] = target: pneumococcal polysaccharide Pn7A
[2] = target: pneumococcal polysaccharide Pn7B
[3] = target: pneumococcal polysaccharide Pn7C
[4] = target: pneumococcal polysaccharide Pn7F
[5] = target: pneumococcal polysaccharide Pn8
[6] = target: pneumococcal polysaccharide Pn9A
[7] = target: pneumococcal polysaccharide Pn9L
[8] = target: pneumococcal polysaccharide Pn9N
[9] = target: pneumococcal polysaccharide Pn9V
[10] = target: pneumococcal polysaccharide C-Poly-1
[11] = target: pneumococcal polysaccharide C-Poly-2
[12] = target: pneumococcal polysaccharide Pn1
[13] = target: pneumococcal polysaccharide Pn10A
[14] = target: pneumococcal polysaccharide Pn10B
[15] = target: pneumococcal polysaccharide Pn10C
[16] = target: pneumococcal polysaccharide Pn10F
[17] = target: pneumococcal polysaccharide Pn11A
[18] = target: pneumococcal polysaccharide Pn11B
[19] = target: pneumococcal polysaccharide Pn11C
[20] = target: pneumococcal polysaccharide Pn11D
[21] = target: pneumococcal polysaccharide Pn11F
[22] = antibody concentration 2.8593 ng/mL
[23] = antibody concentration 15.2894 ng/mL
[24] = antibody concentration 81.7561 ng/mL
[25] = antibody concentration 437.17 ng/mL
[26] = antibody concentration 2337.65 ng/mL
[27] = antibody concentration 12500 ng/mL
[28] = antibody concentration 0.1 ng/mL
[29] = antibody concentration 0.534724 ng/mL

B1: 4-80.1 (protein)
chain 1: QVQLQESGPGLVKPSETLSLTCAVSGIPISTYWWSWIRQTPEKGLEWIGEIDGNGGGTNYNPSLQSRVTFSKDASKNQFSLRLNSVTAADTAVFYCARLWGNAYWGQGVLVTVSS
chain 2: DVVMTQSPLSLPINPGQPASISCRSSQSLVYSDGKTYLTWYQQKPGQPPRRLIYQVSKRDSGVPDRFSGSGAGTDFTLKISRVESEDVGIYYCLQGTHLPYTFGQGTKVEIK
fluorescence intensity [1, 22]: 19.5 MFI | fluorescence intensity [1, 23]: 19.8 MFI | fluorescence intensity [1, 24]: 22 MFI | fluorescence intensity [1, 25]: 30.8 MFI | fluorescence intensity [1, 26]: 49.5 MFI | fluorescence intensity [1, 27]: 108 MFI | fluorescence intensity [2, 28]: 16 MFI | fluorescence intensity [2, 29]: 15.8 MFI | fluorescence intensity [2, 22]: 15.2 MFI | fluorescence intensity [2, 23]: 19 MFI | fluorescence intensity [2, 24]: 23.8 MFI | fluorescence intensity [2, 25]: 151 MFI | fluorescence intensity [2, 26]: 493 MFI | fluorescence intensity [2, 27]: 856 MFI | fluorescence intensity [3, 28]: 15.5 MFI | fluorescence intensity [3, 29]: 15.8 MFI | fluorescence intensity [3, 22]: 16.5 MFI | fluorescence intensity [3, 23]: 18.5 MFI | fluorescence intensity [3, 24]: 55 MFI | fluorescence intensity [3, 25]: 484 MFI | fluorescence intensity [3, 26]: 1100 MFI | fluorescence intensity [3, 27]: 1540 MFI | fluorescence intensity [4, 28]: 14 MFI | fluorescence intensity [4, 29]: 15 MFI | fluorescence intensity [4, 22]: 15 MFI | fluorescence intensity [4, 23]: 16.5 MFI | fluorescence intensity [4, 24]: 27 MFI | fluorescence intensity [4, 25]: 87 MFI | fluorescence intensity [4, 26]: 214 MFI | fluorescence intensity [4, 27]: 356 MFI | fluorescence intensity [5, 28]: 22 MFI | fluorescence intensity [5, 29]: 23.5 MFI | fluorescence intensity [5, 22]: 22.2 MFI | fluorescence intensity [5, 23]: 24.5 MFI | fluorescence intensity [5, 24]: 25 MFI | fluorescence intensity [5, 25]: 43 MFI | fluorescence intensity [5, 26]: 74.5 MFI | fluorescence intensity [5, 27]: 120 MFI | fluorescence intensity [6, 28]: 19.2 MFI | fluorescence intensity [6, 29]: 18.2 MFI | fluorescence intensity [6, 22]: 20.5 MFI | fluorescence intensity [6, 23]: 21.5 MFI | fluorescence intensity [6, 24]: 31 MFI | fluorescence intensity [6, 25]: 106 MFI | fluorescence intensity [6, 26]: 213 MFI | fluorescence intensity [6, 27]: 370 MFI | fluorescence intensity [7, 28]: 17 MFI | fluorescence intensity [7, 29]: 16.8 MFI | fluorescence intensity [7, 22]: 16.2 MFI | fluorescence intensity [7, 23]: 16.5 MFI | fluorescence intensity [7, 24]: 18.5 MFI | fluorescence intensity [7, 25]: 44.5 MFI | fluorescence intensity [7, 26]: 141 MFI | fluorescence intensity [7, 27]: 313 MFI | fluorescence intensity [8, 28]: 15.8 MFI | fluorescence intensity [8, 29]: 16.5 MFI | fluorescence intensity [8, 22]: 15.8 MFI | fluorescence intensity [8, 23]: 19 MFI | fluorescence intensity [8, 24]: 51.5 MFI | fluorescence intensity [8, 25]: 458 MFI | fluorescence intensity [8, 26]: 1100 MFI | fluorescence intensity [8, 27]: 1540 MFI | fluorescence intensity [9, 28]: 16.8 MFI | fluorescence intensity [9, 29]: 16.8 MFI | fluorescence intensity [9, 22]: 24.5 MFI | fluorescence intensity [9, 23]: 107 MFI | fluorescence intensity [9, 24]: 552 MFI | fluorescence intensity [9, 25]: 1670 MFI | fluorescence intensity [9, 26]: 2240 MFI | fluorescence intensity [9, 27]: 2450 MFI

B2: 4-80.4 (protein)
chain 1: QVQLQESGPGLVKPSETLSLTCAVSGGSFSSYWWSWIRQSPGKGLEWIGEISGNSGSTNYNPSLKSRVTISKDASKNQFSLKLSSVTAADTAVYYCARYKEYWGQGVLVTVSS
chain 2: DVVMTQSPLSLLITPGQPASISCRSSQSLVHSNGNTYLSWYQQKPGQPPRRLLYEVSNRDSGVPDRFSGSGAGTDFTLKISRVEAEDVGVYYCGQGTHLPYSFGQGTKVEIK
fluorescence intensity [10, 28]: 25.8 MFI | fluorescence intensity [10, 29]: 25 MFI | fluorescence intensity [10, 22]: 27 MFI | fluorescence intensity [10, 23]: 25 MFI | fluorescence intensity [10, 24]: 26.5 MFI | fluorescence intensity [10, 25]: 28 MFI | fluorescence intensity [10, 26]: 31.5 MFI | fluorescence intensity [10, 27]: 90.5 MFI | fluorescence intensity [11, 28]: 21.5 MFI | fluorescence intensity [11, 29]: 21.5 MFI | fluorescence intensity [11, 22]: 21.5 MFI | fluorescence intensity [11, 23]: 19.5 MFI | fluorescence intensity [11, 24]: 20 MFI | fluorescence intensity [11, 25]: 21.2 MFI | fluorescence intensity [11, 26]: 24.5 MFI | fluorescence intensity [11, 27]: 70.5 MFI | fluorescence intensity [12, 28]: 13 MFI | fluorescence intensity [12, 29]: 13 MFI | fluorescence intensity [12, 22]: 13 MFI | fluorescence intensity [12, 23]: 13 MFI | fluorescence intensity [12, 24]: 14.8 MFI | fluorescence intensity [12, 25]: 14 MFI | fluorescence intensity [12, 26]: 17 MFI | fluorescence intensity [12, 27]: 27.5 MFI | fluorescence intensity [13, 28]: 26.5 MFI | fluorescence intensity [13, 29]: 26.8 MFI | fluorescence intensity [13, 22]: 27.5 MFI | fluorescence intensity [13, 23]: 26.8 MFI | fluorescence intensity [13, 24]: 27 MFI | fluorescence intensity [13, 25]: 27 MFI | fluorescence intensity [13, 26]: 27 MFI | fluorescence intensity [13, 27]: 34.5 MFI | fluorescence intensity [14, 28]: 23.5 MFI | fluorescence intensity [14, 29]: 25 MFI | fluorescence intensity [14, 22]: 24.5 MFI | fluorescence intensity [14, 23]: 23.5 MFI | fluorescence intensity [14, 24]: 24 MFI | fluorescence intensity [14, 25]: 26 MFI | fluorescence intensity [14, 26]: 24 MFI | fluorescence intensity [14, 27]: 31 MFI | fluorescence intensity [15, 28]: 15.5 MFI | fluorescence intensity [15, 29]: 17 MFI | fluorescence intensity [15, 22]: 17.2 MFI | fluorescence intensity [15, 23]: 17.5 MFI | fluorescence intensity [15, 24]: 17.5 MFI | fluorescence intensity [15, 25]: 17.5 MFI | fluorescence intensity [15, 26]: 18.5 MFI | fluorescence intensity [15, 27]: 18.8 MFI | fluorescence intensity [16, 28]: 20 MFI | fluorescence intensity [16, 29]: 20.5 MFI | fluorescence intensity [16, 22]: 19.5 MFI | fluorescence intensity [16, 23]: 19.5 MFI | fluorescence intensity [16, 24]: 20 MFI | fluorescence intensity [16, 25]: 18.8 MFI | fluorescence intensity [16, 26]: 21 MFI | fluorescence intensity [16, 27]: 23 MFI | fluorescence intensity [17, 28]: 25 MFI | fluorescence intensity [17, 29]: 30.5 MFI | fluorescence intensity [17, 22]: 25.8 MFI | fluorescence intensity [17, 23]: 27.5 MFI | fluorescence intensity [17, 24]: 29 MFI | fluorescence intensity [17, 25]: 30.2 MFI | fluorescence intensity [17, 26]: 31.5 MFI | fluorescence intensity [17, 27]: 39.5 MFI | fluorescence intensity [18, 28]: 25.5 MFI | fluorescence intensity [18, 29]: 27.5 MFI | fluorescence intensity [18, 22]: 26 MFI | fluorescence intensity [18, 23]: 27.2 MFI | fluorescence intensity [18, 24]: 29.5 MFI | fluorescence intensity [18, 25]: 29.5 MFI | fluorescence intensity [18, 26]: 30.8 MFI | fluorescence intensity [18, 27]: 36.5 MFI | fluorescence intensity [19, 28]: 21.5 MFI | fluorescence intensity [19, 29]: 21.2 MFI | fluorescence intensity [19, 22]: 21.5 MFI | fluorescence intensity [19, 23]: 22.5 MFI | fluorescence intensity [19, 24]: 22.5 MFI | fluorescence intensity [19, 25]: 23.2 MFI | fluorescence intensity [19, 26]: 28.2 MFI | fluorescence intensity [19, 27]: 76.8 MFI | fluorescence intensity [20, 28]: 25 MFI | fluorescence intensity [20, 29]: 22 MFI | fluorescence intensity [20, 22]: 23 MFI | fluorescence intensity [20, 23]: 25.2 MFI | fluorescence intensity [20, 24]: 22.2 MFI | fluorescence intensity [20, 25]: 24.8 MFI | fluorescence intensity [20, 26]: 26 MFI | fluorescence intensity [20, 27]: 49.2 MFI | fluorescence intensity [21, 28]: 15.5 MFI | fluorescence intensity [21, 29]: 15.5 MFI
